In the supplement of paper PMC10849652:
This is one part of the list.

By UniProt entry, the sequences of proteins in these tests, tags left out. Where a name states a change or a piece, a line headed by the entry shows the natural chain unless it says otherwise.
UniProt P12814, whole entry, looked up: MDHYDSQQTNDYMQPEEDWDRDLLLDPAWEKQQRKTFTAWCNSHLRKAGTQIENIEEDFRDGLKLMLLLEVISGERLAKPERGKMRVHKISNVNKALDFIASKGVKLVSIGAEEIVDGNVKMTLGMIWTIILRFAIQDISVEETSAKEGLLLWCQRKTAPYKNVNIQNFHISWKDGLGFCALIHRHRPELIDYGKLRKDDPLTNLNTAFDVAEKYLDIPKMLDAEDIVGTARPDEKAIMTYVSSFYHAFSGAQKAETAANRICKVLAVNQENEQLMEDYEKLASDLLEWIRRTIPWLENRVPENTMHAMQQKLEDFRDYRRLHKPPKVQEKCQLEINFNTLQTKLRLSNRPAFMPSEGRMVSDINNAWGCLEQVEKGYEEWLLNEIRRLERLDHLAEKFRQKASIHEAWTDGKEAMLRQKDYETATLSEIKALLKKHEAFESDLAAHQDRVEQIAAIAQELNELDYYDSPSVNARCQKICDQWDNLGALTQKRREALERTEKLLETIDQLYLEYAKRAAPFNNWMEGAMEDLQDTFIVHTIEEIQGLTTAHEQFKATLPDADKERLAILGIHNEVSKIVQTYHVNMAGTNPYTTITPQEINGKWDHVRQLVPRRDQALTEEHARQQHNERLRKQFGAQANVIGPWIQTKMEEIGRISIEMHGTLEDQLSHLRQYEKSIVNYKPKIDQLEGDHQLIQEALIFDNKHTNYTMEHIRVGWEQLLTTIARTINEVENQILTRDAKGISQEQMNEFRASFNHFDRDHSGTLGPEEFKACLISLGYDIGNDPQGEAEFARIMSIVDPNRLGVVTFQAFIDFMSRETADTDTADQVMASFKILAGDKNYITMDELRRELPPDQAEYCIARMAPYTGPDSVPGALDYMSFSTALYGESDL
UniProt P55196: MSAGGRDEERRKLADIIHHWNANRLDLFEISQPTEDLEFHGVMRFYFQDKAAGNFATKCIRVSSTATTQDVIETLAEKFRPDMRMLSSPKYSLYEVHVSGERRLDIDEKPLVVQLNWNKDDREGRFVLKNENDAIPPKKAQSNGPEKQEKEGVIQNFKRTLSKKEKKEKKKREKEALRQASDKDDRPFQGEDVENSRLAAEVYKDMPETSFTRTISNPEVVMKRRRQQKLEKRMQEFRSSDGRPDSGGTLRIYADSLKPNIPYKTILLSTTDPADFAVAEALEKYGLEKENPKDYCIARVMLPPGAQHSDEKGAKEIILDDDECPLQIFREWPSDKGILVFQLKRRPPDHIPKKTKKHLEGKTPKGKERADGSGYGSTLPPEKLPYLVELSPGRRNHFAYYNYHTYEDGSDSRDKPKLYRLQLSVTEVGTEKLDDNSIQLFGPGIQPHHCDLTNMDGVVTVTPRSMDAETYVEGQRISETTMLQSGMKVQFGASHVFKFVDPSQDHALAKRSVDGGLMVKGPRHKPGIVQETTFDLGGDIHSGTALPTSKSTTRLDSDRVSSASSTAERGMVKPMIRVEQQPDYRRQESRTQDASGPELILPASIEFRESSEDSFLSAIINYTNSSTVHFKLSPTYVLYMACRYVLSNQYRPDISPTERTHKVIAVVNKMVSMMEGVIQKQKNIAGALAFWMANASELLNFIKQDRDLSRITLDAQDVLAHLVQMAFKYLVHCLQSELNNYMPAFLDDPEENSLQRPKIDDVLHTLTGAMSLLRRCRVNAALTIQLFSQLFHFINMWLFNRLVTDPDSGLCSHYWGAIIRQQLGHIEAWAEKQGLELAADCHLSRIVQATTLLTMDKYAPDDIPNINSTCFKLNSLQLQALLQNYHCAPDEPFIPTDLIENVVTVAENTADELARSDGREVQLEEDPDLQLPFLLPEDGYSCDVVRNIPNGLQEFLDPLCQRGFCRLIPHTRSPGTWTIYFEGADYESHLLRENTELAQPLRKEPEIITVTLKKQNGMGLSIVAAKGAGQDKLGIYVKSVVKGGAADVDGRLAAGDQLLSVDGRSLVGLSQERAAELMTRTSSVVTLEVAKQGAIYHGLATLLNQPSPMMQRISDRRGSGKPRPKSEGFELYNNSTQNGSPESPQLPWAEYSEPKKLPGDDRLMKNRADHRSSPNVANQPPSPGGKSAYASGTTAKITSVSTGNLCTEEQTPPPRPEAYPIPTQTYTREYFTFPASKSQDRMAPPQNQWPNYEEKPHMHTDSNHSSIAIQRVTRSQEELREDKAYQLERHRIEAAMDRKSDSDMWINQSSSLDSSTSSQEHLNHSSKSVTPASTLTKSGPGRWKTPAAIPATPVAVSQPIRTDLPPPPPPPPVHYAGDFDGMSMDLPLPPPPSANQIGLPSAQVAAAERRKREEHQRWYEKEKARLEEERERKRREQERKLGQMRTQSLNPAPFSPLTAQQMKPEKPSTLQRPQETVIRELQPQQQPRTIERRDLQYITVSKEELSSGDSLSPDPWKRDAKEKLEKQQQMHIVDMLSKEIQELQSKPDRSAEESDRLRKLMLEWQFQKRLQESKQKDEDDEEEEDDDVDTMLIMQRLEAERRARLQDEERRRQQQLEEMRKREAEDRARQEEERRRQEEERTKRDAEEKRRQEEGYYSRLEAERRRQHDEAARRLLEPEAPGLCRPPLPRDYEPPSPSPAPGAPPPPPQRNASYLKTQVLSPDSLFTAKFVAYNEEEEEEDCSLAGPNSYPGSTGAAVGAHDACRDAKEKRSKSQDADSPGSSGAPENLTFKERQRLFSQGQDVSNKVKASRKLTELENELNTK
UniProt P11117: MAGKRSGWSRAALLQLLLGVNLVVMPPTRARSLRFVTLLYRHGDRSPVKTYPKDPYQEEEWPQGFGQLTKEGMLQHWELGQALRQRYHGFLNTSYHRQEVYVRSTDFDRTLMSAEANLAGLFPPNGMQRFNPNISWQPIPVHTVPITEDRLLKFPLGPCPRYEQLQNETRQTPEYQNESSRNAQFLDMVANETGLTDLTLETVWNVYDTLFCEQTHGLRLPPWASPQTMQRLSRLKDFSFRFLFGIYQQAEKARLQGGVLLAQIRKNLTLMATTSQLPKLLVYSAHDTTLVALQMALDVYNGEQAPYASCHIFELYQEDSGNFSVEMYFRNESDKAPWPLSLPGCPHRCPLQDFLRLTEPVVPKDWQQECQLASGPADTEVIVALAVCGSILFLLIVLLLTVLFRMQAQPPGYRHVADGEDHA
UniProt Q9BV57: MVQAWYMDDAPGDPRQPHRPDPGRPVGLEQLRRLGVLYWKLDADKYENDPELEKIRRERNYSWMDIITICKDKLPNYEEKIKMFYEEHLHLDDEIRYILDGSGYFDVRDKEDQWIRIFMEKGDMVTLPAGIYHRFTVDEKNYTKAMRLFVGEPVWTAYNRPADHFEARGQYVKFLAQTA
UniProt Q13443: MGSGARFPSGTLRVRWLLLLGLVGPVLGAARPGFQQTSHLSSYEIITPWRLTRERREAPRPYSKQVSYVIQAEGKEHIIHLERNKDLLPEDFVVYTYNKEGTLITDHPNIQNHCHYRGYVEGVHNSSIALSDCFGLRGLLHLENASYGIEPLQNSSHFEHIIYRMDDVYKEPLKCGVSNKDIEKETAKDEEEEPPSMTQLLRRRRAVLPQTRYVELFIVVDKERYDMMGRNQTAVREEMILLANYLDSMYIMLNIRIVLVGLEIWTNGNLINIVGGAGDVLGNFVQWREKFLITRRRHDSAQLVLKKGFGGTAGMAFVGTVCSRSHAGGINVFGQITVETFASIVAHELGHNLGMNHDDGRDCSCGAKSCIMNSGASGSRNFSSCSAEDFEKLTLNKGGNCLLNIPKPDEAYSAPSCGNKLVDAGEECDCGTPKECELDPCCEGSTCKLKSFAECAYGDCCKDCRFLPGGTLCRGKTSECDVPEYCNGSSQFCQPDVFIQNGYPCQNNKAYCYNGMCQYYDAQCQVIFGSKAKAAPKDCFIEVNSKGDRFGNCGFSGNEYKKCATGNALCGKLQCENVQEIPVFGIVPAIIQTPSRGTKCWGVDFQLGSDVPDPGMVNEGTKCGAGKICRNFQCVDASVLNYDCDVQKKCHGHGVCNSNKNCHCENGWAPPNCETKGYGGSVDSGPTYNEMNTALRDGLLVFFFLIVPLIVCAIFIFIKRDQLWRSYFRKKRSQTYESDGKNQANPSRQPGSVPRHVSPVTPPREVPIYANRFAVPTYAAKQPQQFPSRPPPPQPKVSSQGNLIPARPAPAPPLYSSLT
UniProt Q92667: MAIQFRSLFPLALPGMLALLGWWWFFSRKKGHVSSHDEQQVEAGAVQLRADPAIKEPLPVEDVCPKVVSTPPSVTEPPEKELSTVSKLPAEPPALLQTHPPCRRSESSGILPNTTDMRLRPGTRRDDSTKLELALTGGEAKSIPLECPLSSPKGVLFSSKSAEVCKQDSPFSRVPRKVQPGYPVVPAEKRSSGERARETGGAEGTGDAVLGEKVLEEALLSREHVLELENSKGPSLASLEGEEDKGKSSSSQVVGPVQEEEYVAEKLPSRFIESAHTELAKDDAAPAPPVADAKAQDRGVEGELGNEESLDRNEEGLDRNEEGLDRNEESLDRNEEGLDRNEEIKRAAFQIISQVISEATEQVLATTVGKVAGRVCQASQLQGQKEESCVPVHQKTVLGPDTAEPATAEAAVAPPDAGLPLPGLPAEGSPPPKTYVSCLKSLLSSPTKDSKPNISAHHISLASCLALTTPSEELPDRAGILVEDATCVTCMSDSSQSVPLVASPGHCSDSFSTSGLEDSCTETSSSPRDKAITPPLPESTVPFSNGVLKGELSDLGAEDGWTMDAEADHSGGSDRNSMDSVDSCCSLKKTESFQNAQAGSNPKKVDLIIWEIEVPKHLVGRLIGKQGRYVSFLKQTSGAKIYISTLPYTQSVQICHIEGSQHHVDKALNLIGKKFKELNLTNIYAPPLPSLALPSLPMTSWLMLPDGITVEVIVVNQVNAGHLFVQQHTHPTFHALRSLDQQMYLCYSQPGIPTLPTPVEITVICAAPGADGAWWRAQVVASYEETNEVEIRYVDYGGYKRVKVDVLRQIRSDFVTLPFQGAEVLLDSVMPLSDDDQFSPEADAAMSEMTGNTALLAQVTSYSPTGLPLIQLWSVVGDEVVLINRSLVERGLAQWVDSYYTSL

What was measured:
Experiment in all cases: log2 fold change, soluble protein after heating vs DMSO (PISA); higher = thermal stabilisation; K562 lysate, 10 uM; active = over 0.2 and 3.5 SD of the protein, either way, in both replicates (recomputed)
[1] = compound: C#Cc1cccc(Nc2ncnc3cc(OCCOC)c(OCCOC)cc23)c1 [erlotinib]
Method in brief: (§1)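 Values give the log-two fold change in thermal stability against solvent controls, from duplicates. Crude K562 extract at 1 mg/mL protein, made by dounce homogenisation in PBS pH 7.4 with 1 mM MgCl2, was treated with 10 μM compound for 30 min. After 3 min heating across 48°C-58°C, aliquots were pooled, adjusted to 0.5% NP-40 at 4°C and centrifuged at 21,000xg for 90 min. The supernatant was measured by TMTpro 16plex LC-MS/MS with channel sums equalised.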

[2] = compound: C/C(=N\NC(=O)C1=CC(=CC=C1)S(=O)(=O)N2CCOCC2)/C3=C(C=CC(=C3)Cl)O
Method in brief: as §1

[3] = compound: C1=CC(=CC=C1C2=NC3=C(N2)C=C(C=C3)C(=O)N)OC4=CC=C(C=C4)Cl
Method in brief: as §1

[4] = compound: C1=CC2=C(C=CC(=C2)/C=C\3/C(=O)NC(=NCC4=CC=CS4)S3)N=C1
Method in brief: as §1

[5] = compound: C1=CC2=NC=CN=C2C=C1/C=C/3\C(=O)NC(=O)S3
Method in brief: as §1

[6] = compound: C1=CC=C(C=C1)C2=NC(=C(N2)C3=CC=NC=C3)C4=CC(=C(C=C4)Cl)O
Method in brief: as §1

[7] = compound: C1=CC=C2C(=C1)C3=NNC4=CC=CC(=C43)C2=O
Method in brief: as §1

[8] = compound: C1CCN(C1)C(=O)NC2=CC=CC(=C2)NC3=NC=C(C(=N3)NCCC4=CN=CN4)Br
Method in brief: as §1

[9] = compound: C1CN(CCC1(CC2=CC=C(C=C2)Cl)N)C3=NC=NC4=C3C=CN4
Method in brief: as §1

[10] = compound: C1COCCN1CCN2C3=CC=CC=C3N=C2NC(=O)C4=CC(=CC=C4)[N+](=O)[O-] [IRAK-1-4 Inhibitor I]
Method in brief: as §1

[11] = compound: C=CC(=O)N1CCC[C@@H](n2nc(-c3ccc(Oc4ccccc4)cc3)c3c(N)ncnc32)C1 [ibrutinib]
Method in brief: as §1

[12] = compound: CC(=O)c1cnc2ccc(-c3cc(Cl)c(O)c(Cl)c3)nc2c1N[C@H]1CC[C@H](CN(C)C)CC1
Method in brief: as §1

[13] = compound: CC(C)(C)Cn1c(N)nc2ccc(-c3[nH]c(C(C)(C)C)nc3-c3ccc(F)cc3)nc21 [ralimetinib]
Method in brief: as §1

[14] = compound: CC(C)(O)CC(=O)NCCn1ccc2ncnc(Nc3ccc(Oc4cccc(C(F)(F)F)c4)c(Cl)c3)c21
Method in brief: as §1

[15] = compound: CC(C)C1=C2N=C(C=C(N2N=C1)NCC3=CC=CC=C3)NCCCCCCN
Method in brief: as §1

[16] = compound: CC1=C(C(CC(=O)N1)C2=CC=C(C=C2)C(F)(F)F)C(=O)NC3=C(C=C4C(=C3)C=NN4)F
Method in brief: as §1

[17] = compound: CC1=C(C2=C(C=C1)C(=O)C3=CC=CC=C3N2CCCN)C
Method in brief: as §1

[18] = compound: CC1=C(C=C(C=C1)NC(=O)C2=CC(=CC=C2)C(C)(C)C#N)NC3=CC4=C(C=C3)N=CN(C4=O)C
Method in brief: as §1

[19] = compound: CC1=C(C=C(C=C1)NC(=O)C2=CC(=CC=C2)N(C)C)NC(=O)C3=CC=C(C=C3)O
Method in brief: as §1

[20] = compound: CC1=CC=C(C=C1)SC2=C3C=C(SC3=CN=C2)C(=O)N
Method in brief: as §1

Measured: log2 fold change

ACTN1 isoform 3 (UniProt P12814)
inactive: [1] -0.02 | [2] 0.002 | [3] 0.016 | [4] -0.01 | [5] -0.004 | [6] -0.018 | [7] 0.026 | [8] 0.001 | [9] 0.002 | [10] 0.003 | [11] 0.004 | [12] 0.014 | [13] 0.008 | [14] -0.018 | [15] -0.012 | [16] -0.009 | [17] 0.018 | [18] 0.016 | [19] -0.011 | [20] 0.006

AKAP11 (UniProt Q9UKA4)
inactive: [1] 0.114 | [2] 0.232 | [3] 0.037 | [4] 0.095 | [5] 0.016 | [6] 0.059 | [8] -0.064 | [9] 0.017 | [10] -0.071 | [11] 0.032 | [12] -0.111 | [13] 0.058 | [14] -0.068 | [15] 0.054 | [16] 0.065 | [17] -0.015 | [18] -0.002 | [19] 0.003 | [20] 0.085
active: [7] -0.361

AFDN isoform 1 (UniProt P55196)
inactive: [1] 0.013 | [2] -0.017 | [3] -0.012 | [4] -0.013 | [5] -0.012 | [6] -0.002 | [7] -0.02 | [8] -0.015 | [9] 0.002 | [10] 0.007 | [11] -0.006 | [12] -0.006 | [13] 0.01 | [14] -0.007 | [15] -0.013 | [16] -0.011 | [17] -0.002 | [18] 0.012 | [19] 0.016 | [20] 0

AKR1B1 (UniProt P15121)
inactive: [1] -0.044 | [2] -0.001 | [3] -0.006 | [4] 0.012 | [5] -0.009 | [6] -0.047 | [7] -0.044 | [8] -0.043 | [9] -0.003 | [10] -0.021 | [11] 0.023 | [12] -0.015 | [13] 0.031 | [14] -0.029 | [15] -0.033 | [16] -0.013 | [17] 0.091 | [18] -0.038 | [19] 0.028 | [20] 0.004

ACP2 (UniProt P11117)
inactive: [1] -0.034 | [2] 0.017 | [3] 0.047 | [4] -0.026 | [5] -0.017 | [6] 0.044 | [7] -0.026 | [8] -0.005 | [9] 0 | [10] 0.053 | [11] 0.029 | [12] 0.018 | [13] 0.115 | [14] 0.031 | [15] 0.023 | [16] 0.022 | [17] -0.018 | [18] 0.032 | [19] -0.035 | [20] -0.034

ADI1 (UniProt Q9BV57)
inactive: [1] 0.02 | [2] -0.085 | [3] -0.02 | [4] 0.053 | [5] -0.007 | [6] -0.001 | [7] -0.011 | [8] 0.022 | [9] 0.001 | [10] 0.056 | [11] -0.026 | [12] 0.002 | [13] 0.027 | [14] -0.006 | [15] 0.001 | [16] 0.011 | [17] 0.001 | [18] 0.023 | [19] 0.003 | [20] -0.005

ADAM9 (UniProt Q13443)
inactive: [1] -0.034 | [2] 0.039 | [3] 0.013 | [4] -0.058 | [5] -0.015 | [6] -0.088 | [7] -0.089 | [8] -0.019 | [9] 0.031 | [10] -0.012 | [11] -0.015 | [12] 0.046 | [13] 0.019 | [14] 0.031 | [15] -0.011 | [16] 0.03 | [17] 0.027 | [18] -0.074 | [19] -0.017 | [20] -0.015

AKAP1 (UniProt Q92667)
inactive: [1] -0.001 | [2] -0.006 | [3] 0.023 | [4] -0.024 | [5] -0.031 | [6] 0.004 | [7] -0.024 | [8] 0.002 | [9] 0.093 | [10] -0.002 | [11] 0.008 | [12] -0.03 | [13] 0.002 | [14] -0.011 | [15] -0.01 | [16] -0.044 | [17] 0.016 | [18] -0.014 | [19] 0.015 | [20] 0.023
